# Experimental data as given in patent publication US10881645B2, “Methods for controlling blood pressure and reducing dyspnea in heart failure” (Chiesi Farmaceutici S.p.A., priority 2012, dated 2021).
# No dose or concentration is given here for some results.
# Tested on: AHF patients with SBP of ≥160 mmHg
# Assay: Procedures, hospital/ICU admissions, length of stay and readmissions in the AHF trial
# Parameters: species or system human
# Conditions: in vivo
smiles,measurement,value
CCCC(=O)OCOC(=O)C1=C(C)NC(C)=C(C(=O)OC)C1c1cccc(Cl)c1Cl (centres unmarked) [clevidipine],Median hospital stay,4.0 days
same,Out-of-hospital period before re-hospitalization,11.0 days
